Laboratory results: the supplement of paper PMC8426693
The list shows a part of the results.

What was measured:
Assay in all cases: NMR binding call after quantification (hit when 2 of 3 NMR criteria are met) (binary (1 = binding, 0 = not binding)); higher = binding
Conditions in all cases: RNA concentration 10 µM; fragment concentration 200 µM; 293 K
[1] = tested on: SARS-CoV-2 3'-UTR RNA
[2] = tested on: SARS-CoV-2 3_SL1 RNA
[3] = tested on: SARS-CoV-2 3_SL1+2 RNA
[4] = tested on: SARS-CoV-2 3_SL2 RNA
[5] = tested on: SARS-CoV-2 3_SL3base RNA
[6] = tested on: SARS-CoV-2 3_s2m RNA

SMILES	NMR binding call [1]	NMR binding call [2]	NMR binding call [3]	NMR binding call [4]	NMR binding call [5]	NMR binding call [6]
CNCc1ccncc1	0	0	0	0	0	0
Cc1ccc(C)c(OC(=O)c2ccncc2)c1	0	0	0	0	0	0
CCc1nc(C2CCCN2)no1 (stereo not drawn)	0	0	0	0	0	0
Cl.Cn1cc(C(N)=O)c(C2CCCNC2)n1 (stereo not drawn)	0	0	0	0	0	0
CN(CC(=O)O)C(=O)c1ccc(F)cc1	0	0	0	0	0	0
Cl.NC(=O)c1ccc2c(c1)CCN2	0	0	0	0	0	0
CN(C)S(=O)(=O)c1cn[nH]c1	0	0	0	0	0	0
COC(C)c1nc(-c2cnoc2C)cs1 (stereo not drawn)	0	0	0	0	0	0
O=C(COC(F)F)N1CCCC2(CC2)C1	0	0	0	0	0	0
Cc1nccn1CC(C)O (stereo not drawn)	0	0	0	0	0	0
CC1CN(S(=O)(=O)N(C)C(C)C)CCO1 (stereo not drawn)	0	0	0	0	0	0
CC(C)c1nnc(NCC(C)(C)C)s1	0	0	0	0	0	0
CC1CN(Cc2nnsc2Cl)C(C)CO1 (stereo not drawn)	0	0	0	0	0	0
Cc1ccc(NC(=O)c2ccco2)cc1O	0	0	0	0	0	0
Cc1nc(CC(=O)N2CCOCC2)cs1	0	0	0	0	0	0
Cc1ccc(OCC(=O)Nc2cc(C)on2)cc1	0	0	0	0	0	0
CC1CCCCN1CCN (stereo not drawn)	0	0	0	0	0	0
CCOC(=O)c1sc(-c2cnccn2)nc1C	0	0	0	0	0	0
CC1CCNC(C(N)=O)C1 (stereo not drawn)	0	0	0	0	0	0
CC(=O)NCc1ccc(S(N)(=O)=O)cc1	0	0	0	0	0	0
Fc1cccc(CNCc2ccco2)c1	0	0	0	0	0	0
O=C(Cc1ccc(Cl)cc1)Nc1ncccn1	0	0	0	0	0	0
CC(=O)Nc1ccccc1CC(=O)O	0	0	0	0	0	0

SMILES	NMR binding call [1]	NMR binding call [2]	NMR binding call [3]	NMR binding call [4]	NMR binding call [5]	NMR binding call [6]
CC(=O)N(C)c1cccnc1	0	0	0	0	0	0
OC1CCN(Cc2ccc(Cl)cc2)C1 (stereo not drawn)	0	0	0	0	0	0
CN(CCO)S(=O)(=O)c1ccc(N)cc1	0	0	0	0	0	0
CC(C(N)=O)N1CCN(S(C)(=O)=O)CC1 (stereo not drawn)	0	0	0	0	0	0
Cc1cc(C)nc(Nc2ccccc2)n1	0	0	0	0	0	0
O=C(O)c1ccccc1OC(F)(F)F	0	0	0	0	0	0
CS(=O)(=O)N1CCC(C(=O)NC2CC2)CC1	0	0	0	0	0	0
Cc1noc(CC(N)c2ccccc2)n1.Cl (stereo not drawn)	0	0	0	0	0	0
COc1ccccc1NC(=O)c1ccc(C)s1	0	0	0	0	0	0
Nc1ccc(S(=O)(=O)Nc2ccccc2)cc1	0	0	0	0	0	0
CNC(C)c1ccc(F)cc1.Cl (stereo not drawn)	0	0	0	0	0	0
Cc1[nH][nH]c(=O)c1CCO	0	0	0	0	0	0
CCNc1ccc(C)nn1	0	0	0	0	0	0
CC(=O)Nc1nnc(SC(C)C)s1	0	0	0	0	0	0
Cc1cccc(Nc2ncnc3c2cnn3C)c1	0	0	0	0	0	0
O=C(O)c1ccc(OCc2ccccc2)cc1	0	0	0	0	0	0
CC1C(O)CCCN1Cc1ccccc1 (stereo not drawn)	0	0	0	0	0	0
Cl.Cl.Cl.FC(F)n1ccnc1CN1CCNCC1	0	0	0	0	0	0
Cc1c(Cl)cccc1NC(=O)C1CCCO1 (stereo not drawn)	0	0	0	0	0	0
CC(=O)NC(C(=O)O)C1CCOCC1 (stereo not drawn)	0	0	0	0	0	0
Cc1cccc(N2CCNC(C)C2)n1 (stereo not drawn)	0	0	0	0	0	0
CC(=O)N1CC2CCC1c1ccccc12 (stereo not drawn)	0	0	0	0	0	0
COc1ccc(NCc2ccc(F)cc2)cc1	0	0	0	0	0	0

SMILES	NMR binding call [1]	NMR binding call [2]	NMR binding call [3]	NMR binding call [4]	NMR binding call [5]	NMR binding call [6]
CC1COCCN1Cc1ccccc1F (stereo not drawn)	0	0	0	0	0	0
CNS(=O)(=O)Cc1cc(C)on1	0	0	0	0	0	0
Cc1nc(-c2ccccc2)no1	0	0	0	0	0	0
CC(C)(C)NC(=O)Cn1ccc(C(F)(F)F)n1	0	0	0	0	0	0
NC(=O)N1CCN(c2ccc(F)cc2)CC1	0	0	0	0	0	0
CCOc1ccc(CC(=O)O)cc1	0	0	0	0	0	0
CNS(=O)(=O)c1cccc(C)c1F	0	0	0	0	0	0
c1ccc(Nc2nncs2)cc1	0	0	0	0	0	0
CCc1nc(-c2ccc(Cl)cc2)no1	1	0	0	0	0	0
CCn1cc(CCO)cn1	0	0	0	0	0	0
CS(=O)(=O)Nc1ccc(-c2ccccc2)cc1	0	0	0	0	0	0
Oc1ccc(CNC2CCCCC2)cc1	0	0	0	0	0	0
Fc1ccc(CNCc2ccccc2)cc1	0	0	0	0	0	0
CC(=O)Nc1ccc2[nH]c(=O)[nH]c2c1	1	0	0	0	0	0
C1CCC(NCC2CCCO2)C1 (stereo not drawn)	0	0	0	0	0	0
Cc1cccc(CN2CCOCC2)c1	0	0	0	0	0	0
CCNC(=O)c1ccc(NS(C)(=O)=O)cc1	0	0	0	0	0	0
COCC(=O)Nc1c(C)cc(C)cc1C	0	0	0	0	0	0
CS(=O)(=O)NC1(C(=O)O)CCCCC1	0	0	0	0	0	0
CC(=O)NC(C)c1nnc2ccccn12 (stereo not drawn)	0	0	0	0	0	0
CN(C)C(=O)C1(C(=O)O)CC1	0	0	0	0	0	0
CC1CC1C(=O)NCCc1ccc(Cl)cc1 (stereo not drawn)	0	0	0	0	0	0

Nothing new here: entries from further up.
SMILES	NMR binding call [1]	NMR binding call [2]	NMR binding call [3]	NMR binding call [4]	NMR binding call [5]	NMR binding call [6]
Cc1cccc(CN2CCOCC2)c1	0	0	0	0	0	0
CCNC(=O)c1ccc(NS(C)(=O)=O)cc1	0	0	0	0	0	0
COCC(=O)Nc1c(C)cc(C)cc1C	0	0	0	0	0	0
CS(=O)(=O)NC1(C(=O)O)CCCCC1	0	0	0	0	0	0
CC(=O)NC(C)c1nnc2ccccn12 (stereo not drawn)	0	0	0	0	0	0
